Experimental data from PubChem BioAssay AID1625 (Sanford-Burnham Center for Chemical Genomics, 2009).
Among all 190,000 compounds or so, about 570 (0.3%) were called active. This list was built around the results that the source calls inconclusive (neither active nor inactive); the mix of calls is not that of the screen.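 How the source made its calls: active means z-score above 3 at 5 µM with at least 500 cells counted in the well; inconclusive means wells under 500 cells, flagged as cytotoxic or low count; inactive means the rest.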

Experiment: up-regulation of insulin promoter-GFP reporter – imaging, high-content screening, mouse beta cells (AID 1625)
Conditions: MIN6 insulin promoter-GFP reporter, at 5 µM, stronger effect = higher value
In the case of COc1cc(/C=N/O)ccc1OCc1ccc(Cl)cc1, the z-score is reported as inactive: 0.2.
For CC[n+]1c(/C=C2/C=C(C)CC(C)C2)sc2ccccc21 (configuration not stated), the z-score was inconclusive: -2.11.
In the case of O=c1[nH]c(CN2CCN(Cc3ccc4c(c3)OCO4)CC2)nc2sc3c(c12)CCC3, the z-score is reported as active: 3.55.
For O=c1cc(/N=C/c2coc3c(ccc4ccccc43)c2=O)[nH]c(=S)[nH]1, the z-score was inconclusive: -1.11.
For CC(=O)n1cc(N(C(=O)CCl)c2ccccc2)c2ccccc21, the z-score was inconclusive: -4.04.
With CCC(CO)NCC#Cc1ccccc1 (configuration not stated) the z-score was inactive: 0.03.
In the case of COc1cc(/C=C(\C#N)c2ccccn2)ccc1OCc1ccc(Cl)cc1, the z-score is reported as inactive: -0.91.
With O=C(NC1CCCCC1)C(c1ccc(F)cc1)N(Cc1ccco1)C(=O)Cn1nnc2ccccc21 (configuration not stated) the z-score was inactive: -0.93.
In the case of COCCn1nnnc1C(c1cc2cc(OC)ccc2[nH]c1=O)N1CCC(Cc2ccccc2)CC1 (configuration not stated), the z-score is reported as inactive: -0.08.
For CCCOC(=O)c1c(NC(=O)C2C3C=CC(C3)C2C(=O)O)sc2c1CCC(C)C2 (configuration not stated), the z-score was inactive: -0.36.
In the case of CC(=O)N1CCC(N2CCN(c3ccccc3F)CC2)CC1, the z-score is reported as inactive: -0.18.
With Cc1ccc(N2CCN(CC(=O)Nc3c(C(=O)C4CC4)oc4ccccc34)CC2)cc1 the z-score was inconclusive: -2.34.
In the case of Cc1ccc(S(=O)(=O)N2CCCC2C(=O)N(C)Cc2cccs2)cc1 (configuration not stated), the z-score is reported as active: 4.2.
In the case of CC(C)Oc1ccc(C(=O)CCN2CCCCC2)cc1, the z-score is reported as inactive: -0.09.
In the case of CC(C(=O)NC1CCCc2ccccc21)N1CCN(Cc2ccc3c(c2)OCO3)CC1 (configuration not stated), the z-score is reported as inconclusive: -1.12.
With COc1cc(CN(C)CC(=O)c2[nH]c(C)c(C(C)=O)c2C)ccc1OC(F)F the z-score was inconclusive: -5.15.
In the case of CC(C)(C)NS(=O)(=O)c1ccc(CCC(=O)Nc2cc(Cl)ccc2Oc2ccccc2)cc1, the z-score is reported as inconclusive: -1.86.
For N#CC(c1cccc(Cl)c1)c1ccc2c(C(F)(F)F)cc(C(F)(F)F)nc2n1 (configuration not stated), the z-score was inconclusive: -9.65.
With CC1CCCCN1c1ncnc2ccccc12 (configuration not stated) the z-score was inconclusive: -3.78.
For Cn1c(=O)oc2cc(S(=O)(=O)NCc3ccncc3)ccc21, the z-score was inconclusive: -2.38.
In the case of CCC(=O)Oc1ccc2oc(=O)cc(C)c2c1, the z-score is reported as inactive: 0.69.
In the case of C=C(CO)C1Cc2cc(C(C)=O)ccc2O1 (configuration not stated), the z-score is reported as inconclusive: -2.
In the case of Cc1ccc(NCCC(=O)c2cccc([N+](=O)[O-])c2)cc1, the z-score is reported as inconclusive: -5.59.
With CC[n+]1ccc(/C=C/c2ccc(N(C)C)cc2)c2ccccc21 the z-score was inconclusive: -1.33.
In the case of COc1cccc(C(=O)CN2C(=O)C(C)(C)Oc3ccc(C(=O)N4CCCCCC4)cc32)c1, the z-score is reported as active: 3.58.
In the case of COc1ccc(/C=C/C(=O)OCC(=O)NCc2ccco2)c(OC)c1, the z-score is reported as inactive: -0.19.
For Cc1sc2ncnc(NCC(C)(C)N3CCOCC3)c2c1C, the z-score was inconclusive: -6.72.
For COc1ccc(N2CCN(C(=O)CSc3nnc(-c4cccnc4)n3-c3ccccc3)CC2)cc1, the z-score was inconclusive: -1.9.
With O=C1C(Cl)=C(Nc2ccccc2)C(=O)c2ccccc21 the z-score was inconclusive: -4.21.
For COc1ccccc1/C=C/C(=O)/C=C/c1ccccc1O, the z-score was inconclusive: -4.61.
In the case of Clc1ccc2nnnc(-c3ccccc3)c2c1, the z-score is reported as inconclusive: 0.92.
With COc1ccccc1-n1c(-c2ccccc2)c[n+]2c1CCc1ccccc1-2 the z-score was inconclusive: -5.21.
For CC(=O)Nc1nc(-c2ccc(Br)s2)cs1, the z-score was active: 5.02.
In the case of COc1ccc(C2C(C(=O)c3ccccc3)=C(C)Nc3nc4ccccc4n32)c(OC)c1 (configuration not stated), the z-score is reported as active: 3.79.
With Cc1ccc(-c2c[n+](CC(=O)c3ccc(Br)cc3)c3n2CCCCC3)cc1 the z-score was inconclusive: -3.54.
With CC1CCCN(CCOCCSc2ccccc2)C1 (configuration not stated) the z-score was inconclusive: -4.44.
In the case of CCOc1ncccc1C(=O)NCc1ccccc1, the z-score is reported as inconclusive: -4.25.
In the case of Cc1ccc(N2C(=O)c3cccc4c(N)ccc(c34)C2=O)c2cccnc12, the z-score is reported as inconclusive: 15.8.
In the case of CC(=Nc1ccc(C)cc1C)c1sc2ccccc2c1O, the z-score is reported as active: 3.96.
With COc1ccccc1N1CCN(C/C(O)=C(\C#N)c2nc(-c3ccccc3)cs2)CC1 the z-score was active: 3.2.
With Cc1nnc(SCC(=O)c2c(N)n(C)c(=O)n(C)c2=O)[nH]c1=O the z-score was inactive: 0.11.
With O=C(c1ccccc1)N1CCSc2sccc2C1=O the z-score was inactive: 0.76.
With CC1(C)CC(=O)c2cc(C(=O)N3CCCC(C)(C)C3)c(=O)n(-c3ccccc3)c2C1 the z-score was inconclusive: -0.32.
With CCCCNC(=O)/C(C#N)=c1\s/c(=C\c2ccccc2OC(F)F)c(=O)n1CCCOC the z-score was active: 4.53.
With CCOc1ccc2[nH]c(=O)c(CN(CCc3ccccc3)C(=O)N3CCOCC3)cc2c1 the z-score was active: 5.49.
For CN1CCCC1CCNS(=O)(=O)c1ccc(Br)cc1 (configuration not stated), the z-score was inactive: 0.66.
For CC1(C)c2ccccc2N2CC(=O)NC21/C=C/c1ccco1 (configuration not stated), the z-score was active: 3.29.
With CCOC(=O)c1c(-c2ccc(C)o2)csc1NC(=O)CN1CCN(CC)CC1 the z-score was inconclusive: -6.
In the case of CCN(CC)CCCN(Cc1cc2cc(OC)ccc2[nH]c1=O)C(=O)Nc1ccc(F)cc1, the z-score is reported as inconclusive: -0.71.
For COc1ccc(-c2nc(-c3cccc(C)c3)nc(N3CCN(C)CC3)c2C#N)cc1, the z-score was inactive: -0.78.
In the case of CCCCNc1nc2c(c(=O)n(C)c(=O)n2C)n1Cc1cccc(OC)c1, the z-score is reported as inconclusive: -1.55.
In the case of O=C(Cn1cnc2c(nnn2-c2ccc(F)cc2)c1=O)N1CCCc2ccccc21, the z-score is reported as inactive: 0.07.
In the case of CCN1CCCC1CNC(=O)c1cc2c(-c3cccc(OC)c3)nn(C)c2s1 (configuration not stated), the z-score is reported as inactive: -0.87.
In the case of O=C(/C=C/c1ccc2ccccc2n1)c1cc(Br)ccc1O, the z-score is reported as active: 4.36.
With COc1ccc(CNc2cc(C)nc3ncnn23)c(OC)c1 the z-score was inconclusive: -3.54.
For Cc1ccc2c(c1)N(CC(=O)Nc1ccc3c(c1)OCCO3)C(=O)CO2, the z-score was inactive: 0.26.
With COc1ccccc1NC(=O)C1=C(C)NC(SCC(=O)c2ccc(C)cc2)=C(C#N)C1c1ccco1 (configuration not stated) the z-score was active: 3.29.
In the case of COc1cccc(/C=N/Nc2nc(Nc3ccccc3)nc(-n3nc(C)cc3C)n2)c1O, the z-score is reported as inconclusive: -6.59.
With CCOc1ccc(-n2c(-c3ccc(OC)cc3)c[n+]3c2CCCCC3)cc1 the z-score was inconclusive: -3.7.
In the case of Cc1c(C(=O)O)cccc1-c1ccc(/C=C2/NC(=O)N(c3ccccc3)C2=O)o1, the z-score is reported as active: 3.88.
With Cc1ccc(CNC(=O)c2nn(C)c(C)c2[N+](=O)[O-])cc1 the z-score was inconclusive: -3.61.
For CC1(C)Cc2c(C#N)c(N3CCN(C(=O)c4ccco4)CC3)nc(-c3ccco3)c2CS1, the z-score was inconclusive: -2.69.
In the case of COc1ccc2cc3cc(C(=O)NCc4ccccn4)oc3nc2c1, the z-score is reported as active: 3.32.
With CCOC(=O)C1=C(C)N=c2s/c(=C/c3ccccc3)c(=O)n2C1c1ccc(OC)c(OC)c1 (configuration not stated) the z-score was inactive: -0.28.
In the case of O=C(C1CC(c2ccc(F)cc2)=NO1)N1CCN(Cc2ccccc2)CC1 (configuration not stated), the z-score is reported as inconclusive: -2.29.
With COc1ccccc1N1CCN(/N=C/c2c(C)nn(-c3ccccc3)c2C)CC1 the z-score was inconclusive: -1.62.
In the case of COc1ccc(CNC[C@@H](CCCCN(C)Cc2ccc(OC)cc2)N2C[C@H](c3ccccc3)N(CCc3ccc(Cl)c(Cl)c3)C(=O)C2=O)cc1, the z-score is reported as inconclusive: -7.05.
With Cc1ccnc(NC(=O)COc2c(C)cc(C)cc2[N+](=O)[O-])c1 the z-score was inactive: -0.18.
In the case of CCc1cc(=O)oc2cc(OCC(N)=O)c(Cl)cc12, the z-score is reported as inactive: -0.41.
With Nc1ccc2c(c1)Nc1ccccc1CC2 the z-score was inactive: 0.34.
With CC1CCc2onc(C(=O)O)c2C1 (configuration not stated) the z-score was inconclusive: -1.66.
In the case of CC(C)CC(=O)N1CCC(N2CCN(c3ccccc3)CC2)CC1, the z-score is reported as inactive: -0.17.
With CCN1/C(=C/c2ccc3ccccc3[n+]2CC)C=Cc2ccccc21 the z-score was inconclusive: -1.75.
In the case of Cc1nc(NC2=NCN(Cc3ccco3)CN2)nc2ccccc12, the z-score is reported as inactive: 0.12.
In the case of CCCNC(=S)NC1CC2CCCC(C1)N2CC(C)C (configuration not stated), the z-score is reported as inconclusive: -3.8.
With O=C(CSc1ncc(-c2ccccc2)[nH]1)Nc1ccccc1 the z-score was inactive: 0.47.
In the case of O=c1cc(CSc2nnc(-c3cccs3)n2Cc2ccccc2)nc2sc3ccccc3n12, the z-score is reported as inconclusive: -5.46.
With Cc1nn(-c2ccc(F)cc2)c2nc(N)c(C#N)c(-c3cccs3)c12 the z-score was inconclusive: -5.78.
For CCOC(=O)N1CCN(C(=O)NC2CCCCC2)CC1, the z-score was active: 3.74.
In the case of Cc1ccc(-c2nn(-c3cccc(F)c3)cc2CNCc2cccnc2)o1, the z-score is reported as inactive: -0.26.
With COC(=O)NNC(=O)c1ccc(C)c(Br)c1 the z-score was inactive: 0.56.
In the case of COc1ccc(-n2c(-c3ccccc3)c[n+]3c2CCC3)cc1, the z-score is reported as inconclusive: -6.13.
With Cc1ccc(-c2nn(CCC#N)cc2C=C(C#N)C#N)cc1 the z-score was inconclusive: -5.39.
For COC(=O)C1=C(N)n2c(s/c(=C\c3cccnc3)c2=O)=C(C(=O)OC)C1c1cccnc1 (configuration not stated), the z-score was active: 3.21.
For O=C(Nc1ccc2c(c1)OCO2)c1cc(-c2cccnc2)nc2ccccc12, the z-score was inactive: -0.76.
For S=C(c1ccc(-c2ccccc2Cl)o1)N1CCOCC1, the z-score was inactive: 0.29.
With S=C(NNc1ccnc2cc(Cl)ccc12)Nc1ccccc1Cl the z-score was inconclusive: -2.71.
For Cc1ccc(C(=O)NCCCn2ccnc2)cc1[N+](=O)[O-], the z-score was active: 5.54.
For CC1CCC(NC(=O)C2CCC(CNS(=O)(=O)c3cccc4nsnc34)CC2)CC1 (configuration not stated), the z-score was inconclusive: 0.3.
For COc1ccc(CN2CCN(C(=O)C3CC(=O)N(C4CCCCCC4)C3)CC2)c(OC)c1OC (configuration not stated), the z-score was inconclusive: -2.36.
In the case of COc1ccc(C2C(C#N)=C(N)Oc3n[nH]c(C)c32)cc1CSc1ccccn1 (configuration not stated), the z-score is reported as inactive: 0.7.
With CCc1ccc(C(=O)NN(C(=O)c2ccc(CC)cc2)C(C)(C)C)cc1 the z-score was inconclusive: -6.8.
